Reference: publication PMC11181022, “The molecular architecture of Lactobacillus S-layer: Assembly and attachment to teichoic acids” (Proceedings of the National Academy of Sciences of the …, 2024)
No constants are given. Whether binding was seen depends on the method and setting. Some entries that bind do so weakly or less than the wild type.

What was measured:
[1] = biological target: SlpX_ac_II, middle domain of the S-layer protein SlpX of Lactobacillus acidophilus (Lactobacillus acidophilus ATCC4356) (UniProt Q5FLN0); assay: crystal structure; contacts between neighbouring molecules in crystals of single recombinant domains; sitting drop vapor diffusion, 20 °C, data at 100 K; both purified
[2] = biological target: SlpA_ac_II, domain II of the S-layer protein SlpA of Lactobacillus acidophilus ATCC4356 (Lactobacillus acidophilus ATCC4356) (UniProt P35829); assay: as above

Binder	binding [1]	binding [2]
SlpX_ac_II, middle domain of the S-layer protein SlpX of Lactobacillus acidophilus (domain or fragment, UniProt Q5FLN0 184-362) STPTDTTQNPQINWTKGGQAQSSSLNGQVFQVAVGSNFNPLNFTNSNGENIIVSAQQSKNNTTFASIEATSNPVNTSEAGRYYNVTLTATGNTGKKTTATYTVLITSSQKQTLYGNGESTISTYSIYGNNVLSNSTTFKDGDQVYVSDQTKTVGGVSYSQVSPKSKNDANSSNIWVKTS	binds	–
SlpA_ac_II, domain II of the S-layer protein SlpA of Lactobacillus acidophilus ATCC4356 (domain or fragment, UniProt P35829 199-308) NVNFYDVTSGATVTNGAVSVNADNQGQVNVANVVAAINSKYFAAQYADKKLNTRTANTEDAIKAALKDQKIDVNSVGYFKAPHTFTVNVKATSNTNGKSATLPVVVTVPN	–	binds
